Source: publication PMC7203548
These are yes or no findings as the source states them, for the method shown. For some assays here: Binding seen in cells or lysates may run through a third protein. For some assays here: Where a sequence is shown, tags or fusion partners need not be part of it. Blank lines part the entries; values can stand above or below the binder they belong to.

How the values were obtained:
[1] = molecular target: Drosophila melanogaster OTK1-5 ectodomain (residues 23-580), wild type (Drosophila melanogaster) (UniProt Q6AWJ9); assay: SEC-MALS; Superdex 200 Increase 10/300, 15 mM HEPES pH 7.4, 150 mM NaCl; initial protein concentrations 2.0, 1.0 and 0.5 mg/mL; both purified
[2] = molecular target: OTK1-5 K237A ectodomain (Drosophila melanogaster) (UniProt Q6AWJ9); assay: AUC; sedimentation velocity, 20°C, 40000 rpm, 15 mM HEPES pH 7.4, 150 mM NaCl; both purified
[3] = molecular target: OTK1-5 K237A ectodomain (Drosophila melanogaster) (UniProt Q6AWJ9); assay: single-particle negative-stain electron microscopy; 8 μg/ml protein in 15 mM HEPES pH 7.4, 150 mM NaCl, stained with 0.75% uranyl formate; both purified
[4] = molecular target: T1, PlexA_(ecto) (full-length ectodomain of Drosophila Plexin A, all ten domains, residues 28-1272), biotinylated (Drosophila) (UniProt Q9V491); assay: SPR; equilibrium, apparent KD; biotinylated PlexA constructs immobilised on SA chip from dialysed conditioned medium; Biacore T200, PBS, 0.05% Tween 20, 25°C; both purified
T1 sequence (chain, biotin on the biotin ligase recognition site (in vivo biotinylation)): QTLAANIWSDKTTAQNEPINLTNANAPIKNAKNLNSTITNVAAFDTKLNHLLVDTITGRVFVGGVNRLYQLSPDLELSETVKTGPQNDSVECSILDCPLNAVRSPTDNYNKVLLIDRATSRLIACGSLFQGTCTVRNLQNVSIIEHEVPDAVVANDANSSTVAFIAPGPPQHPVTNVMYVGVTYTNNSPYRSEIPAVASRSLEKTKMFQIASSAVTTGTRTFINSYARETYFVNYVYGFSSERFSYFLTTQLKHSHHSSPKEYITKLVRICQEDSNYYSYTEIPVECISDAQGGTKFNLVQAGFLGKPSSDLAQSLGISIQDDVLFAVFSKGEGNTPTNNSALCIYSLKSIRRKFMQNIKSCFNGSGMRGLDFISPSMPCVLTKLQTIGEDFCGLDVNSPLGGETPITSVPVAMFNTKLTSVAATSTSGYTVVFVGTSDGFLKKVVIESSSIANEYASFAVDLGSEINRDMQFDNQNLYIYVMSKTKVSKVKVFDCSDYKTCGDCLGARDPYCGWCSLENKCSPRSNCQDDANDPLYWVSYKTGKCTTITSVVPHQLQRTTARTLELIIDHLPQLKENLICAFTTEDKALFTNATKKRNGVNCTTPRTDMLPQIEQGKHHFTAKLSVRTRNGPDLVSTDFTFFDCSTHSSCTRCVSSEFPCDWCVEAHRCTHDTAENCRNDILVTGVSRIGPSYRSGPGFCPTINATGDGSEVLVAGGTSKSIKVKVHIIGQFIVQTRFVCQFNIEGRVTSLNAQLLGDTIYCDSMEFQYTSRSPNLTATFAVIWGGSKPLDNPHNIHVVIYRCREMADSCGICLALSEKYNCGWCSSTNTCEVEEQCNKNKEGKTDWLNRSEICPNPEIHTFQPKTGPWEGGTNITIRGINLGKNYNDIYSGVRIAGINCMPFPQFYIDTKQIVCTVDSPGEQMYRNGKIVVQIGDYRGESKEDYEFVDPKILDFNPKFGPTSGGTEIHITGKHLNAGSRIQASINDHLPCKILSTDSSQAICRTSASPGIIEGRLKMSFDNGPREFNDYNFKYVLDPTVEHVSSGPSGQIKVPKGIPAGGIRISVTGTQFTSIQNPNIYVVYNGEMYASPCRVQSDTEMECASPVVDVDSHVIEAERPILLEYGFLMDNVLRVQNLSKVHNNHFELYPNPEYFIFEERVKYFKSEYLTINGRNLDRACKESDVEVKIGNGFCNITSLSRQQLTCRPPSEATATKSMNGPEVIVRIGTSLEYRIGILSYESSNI

[5] = molecular target: T2, PlexA1-4 (first four domains of Drosophila Plexin A, residues 28-730), biotinylated (Drosophila) (UniProt Q9V491); assay: as above
T2 sequence (chain, biotin on the biotin ligase recognition site (in vivo biotinylation)): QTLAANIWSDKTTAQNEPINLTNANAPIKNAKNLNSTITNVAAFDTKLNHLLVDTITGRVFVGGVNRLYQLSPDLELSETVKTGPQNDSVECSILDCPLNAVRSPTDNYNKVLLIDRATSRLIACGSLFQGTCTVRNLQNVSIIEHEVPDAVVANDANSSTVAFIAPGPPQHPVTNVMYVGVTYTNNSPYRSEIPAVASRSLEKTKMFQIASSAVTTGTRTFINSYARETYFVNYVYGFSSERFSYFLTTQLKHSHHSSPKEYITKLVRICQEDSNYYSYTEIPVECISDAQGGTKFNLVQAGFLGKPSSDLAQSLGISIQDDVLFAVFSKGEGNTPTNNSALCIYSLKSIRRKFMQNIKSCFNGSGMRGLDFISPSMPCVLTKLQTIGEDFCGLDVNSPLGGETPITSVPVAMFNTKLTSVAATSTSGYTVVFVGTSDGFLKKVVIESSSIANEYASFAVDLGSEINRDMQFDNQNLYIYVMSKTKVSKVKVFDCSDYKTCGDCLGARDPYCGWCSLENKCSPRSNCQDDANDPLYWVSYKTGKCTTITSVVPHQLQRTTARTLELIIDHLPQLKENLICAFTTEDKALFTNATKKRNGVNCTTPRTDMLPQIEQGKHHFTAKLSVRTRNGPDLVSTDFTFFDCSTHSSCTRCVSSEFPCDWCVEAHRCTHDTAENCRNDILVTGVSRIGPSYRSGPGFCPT

[6] = molecular target: OTK (residues 23-607: ectodomain, transmembrane segment, short cytoplasmic linker) with C-terminal mClover or mRuby2, in COS-7 cells (Drosophila) (UniProt Q6AWJ9); assay: FRET or BRET; FRET-FLIM in live COS-7 cells, donor mClover and acceptor mRuby2 fusions co-expressed, 37°C, donor lifetime measured
[7] = molecular target: mClover-tagged OTK wild-type (residues 23-607), solubilised from HEK293T cells (Drosophila) (UniProt Q6AWJ9); assay: SEC; fluorescence-detection SEC (FSEC) of HEK293T cells solubilised with 1.0% DDM/CHS, Superose 6 Increase 3.2/300, 15 mM HEPES pH 7.4, 150 mM NaCl, 0.03% DDM/CHS; compared with OTK-CD4
[8] = molecular target: mClover-tagged OTK wild-type (residues 23-607), solubilised from HEK293T cells (Drosophila) (UniProt Q6AWJ9); assay: native gel or EMSA; blue native PAGE followed by western blot; OTK wild-type compared with OTK-CD4

B1: Drosophila melanogaster OTK1-5 ectodomain (residues 23-580), wild type (domain or fragment, UniProt Q6AWJ9 23-580)
chain: SSSRFQRVPQSQSVVENESVKFECESTDSYSELHYDWLHNGHRIAYDKRVHQIGSNLHIEAVRRTEDVGNYVCIATNLASGAREASPPAKLSVIYLESASVQLLGSNRNELLLKCHVEGASGDLEPLEIEWYRNSEKLSTWKNVQLDQHRLIIRQPGSEDDGLYRCTASNAAGRVMSKQGYVYQSSVKCLPRLPRRKNEKMMESWDKQTFLCRGKRGGAAGLEALPAAPEDLRIVQGPIGQSIIKEGEPTALTCLYELPDELKNQRIQLRWRKDGKLLRQVELGGSAPIPGHSFDSGKDALLREDARLVLHKQNGTLSFASIIASDAGQYQCQLQLEAHAPINSSPGILEVIEQLKFVPQPTSKNLELDAVVAKVHCKAQGTPTPQVQWVRDGENTTLPDHVEVDANGTLIFRNVNSEHRGNYTCLATNSQGQINATVAINVVVTPKFSVPPVGPIETSEQGTVVMHCQAIGDPKPTIQWDKDLKYLSENNTDRERFRFLENGTLEIRNVQVEDEGSYGCTIGNSAGLKREDVQLVVKTTGDGFAPEESGGDGFLVTR
binding [1]: no binding (tested: 2.0 mg/mL)

B4: mClover-tagged OTK wild-type (residues 23-607), solubilised from HEK293T cells (receptor, UniProt Q6AWJ9 23-607)
chain: SSSRFQRVPQSQSVVENESVKFECESTDSYSELHYDWLHNGHRIAYDKRVHQIGSNLHIEAVRRTEDVGNYVCIATNLASGAREASPPAKLSVIYLESASVQLLGSNRNELLLKCHVEGASGDLEPLEIEWYRNSEKLSTWKNVQLDQHRLIIRQPGSEDDGLYRCTASNAAGRVMSKQGYVYQSSVKCLPRLPRRKNEKMMESWDKQTFLCRGKRGGAAGLEALPAAPEDLRIVQGPIGQSIIKEGEPTALTCLYELPDELKNQRIQLRWRKDGKLLRQVELGGSAPIPGHSFDSGKDALLREDARLVLHKQNGTLSFASIIASDAGQYQCQLQLEAHAPINSSPGILEVIEQLKFVPQPTSKNLELDAVVAKVHCKAQGTPTPQVQWVRDGENTTLPDHVEVDANGTLIFRNVNSEHRGNYTCLATNSQGQINATVAINVVVTPKFSVPPVGPIETSEQGTVVMHCQAIGDPKPTIQWDKDLKYLSENNTDRERFRFLENGTLEIRNVQVEDEGSYGCTIGNSAGLKREDVQLVVKTTGDGFAPEESGGDGFLVTRAVLITMTVALAYIVLVVGLMLWCRYRR
binding [7]: no binding | binding [8]: no binding

More lines, main results first:

binding [3]: no binding (tested: 8 μg/ml) | binding [4]: no binding (tested: up to 125 μM) | binding [5]: no binding (tested: up to 125 μM)
B2: OTK1-5 K237A ectodomain (domain or fragment, UniProt Q6AWJ9 23-580)
chain: SSSRFQRVPQSQSVVENESVKFECESTDSYSELHYDWLHNGHRIAYDKRVHQIGSNLHIEAVRRTEDVGNYVCIATNLASGAREASPPAKLSVIYLESASVQLLGSNRNELLLKCHVEGASGDLEPLEIEWYRNSEKLSTWKNVQLDQHRLIIRQPGSEDDGLYRCTASNAAGRVMSKQGYVYQSSVKCLPRLPRRKNEKMMESWDKQTFLCRGARGGAAGLEALPAAPEDLRIVQGPIGQSIIKEGEPTALTCLYELPDELKNQRIQLRWRKDGKLLRQVELGGSAPIPGHSFDSGKDALLREDARLVLHKQNGTLSFASIIASDAGQYQCQLQLEAHAPINSSPGILEVIEQLKFVPQPTSKNLELDAVVAKVHCKAQGTPTPQVQWVRDGENTTLPDHVEVDANGTLIFRNVNSEHRGNYTCLATNSQGQINATVAINVVVTPKFSVPPVGPIETSEQGTVVMHCQAIGDPKPTIQWDKDLKYLSENNTDRERFRFLENGTLEIRNVQVEDEGSYGCTIGNSAGLKREDVQLVVKTTGDGFAPEESGGDGFLVTR
binding [2]: no binding (tested: up to a concentration of 80 μM)

binding [6]: no binding
B3: OTK (residues 23-607: ectodomain, transmembrane segment, short cytoplasmic linker) with C-terminal mClover or mRuby2, in COS-7 cells (receptor, UniProt Q6AWJ9 23-607)
chain: SSSRFQRVPQSQSVVENESVKFECESTDSYSELHYDWLHNGHRIAYDKRVHQIGSNLHIEAVRRTEDVGNYVCIATNLASGAREASPPAKLSVIYLESASVQLLGSNRNELLLKCHVEGASGDLEPLEIEWYRNSEKLSTWKNVQLDQHRLIIRQPGSEDDGLYRCTASNAAGRVMSKQGYVYQSSVKCLPRLPRRKNEKMMESWDKQTFLCRGKRGGAAGLEALPAAPEDLRIVQGPIGQSIIKEGEPTALTCLYELPDELKNQRIQLRWRKDGKLLRQVELGGSAPIPGHSFDSGKDALLREDARLVLHKQNGTLSFASIIASDAGQYQCQLQLEAHAPINSSPGILEVIEQLKFVPQPTSKNLELDAVVAKVHCKAQGTPTPQVQWVRDGENTTLPDHVEVDANGTLIFRNVNSEHRGNYTCLATNSQGQINATVAINVVVTPKFSVPPVGPIETSEQGTVVMHCQAIGDPKPTIQWDKDLKYLSENNTDRERFRFLENGTLEIRNVQVEDEGSYGCTIGNSAGLKREDVQLVVKTTGDGFAPEESGGDGFLVTRAVLITMTVALAYIVLVVGLMLWCRYRR
